# Some of the results follow.
# Amino acid sequences for entries named in this document (tags omitted). A change or cut given only in a name is not applied to a line headed by its entry.
# UniProt Q8WZ82: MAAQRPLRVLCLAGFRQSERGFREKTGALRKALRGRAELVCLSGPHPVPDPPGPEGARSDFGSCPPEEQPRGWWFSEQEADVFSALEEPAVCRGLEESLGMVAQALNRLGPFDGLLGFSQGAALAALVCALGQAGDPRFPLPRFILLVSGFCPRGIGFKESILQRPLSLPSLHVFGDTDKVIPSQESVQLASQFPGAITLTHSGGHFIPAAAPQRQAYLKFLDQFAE
# UniProt Q9Y6K5: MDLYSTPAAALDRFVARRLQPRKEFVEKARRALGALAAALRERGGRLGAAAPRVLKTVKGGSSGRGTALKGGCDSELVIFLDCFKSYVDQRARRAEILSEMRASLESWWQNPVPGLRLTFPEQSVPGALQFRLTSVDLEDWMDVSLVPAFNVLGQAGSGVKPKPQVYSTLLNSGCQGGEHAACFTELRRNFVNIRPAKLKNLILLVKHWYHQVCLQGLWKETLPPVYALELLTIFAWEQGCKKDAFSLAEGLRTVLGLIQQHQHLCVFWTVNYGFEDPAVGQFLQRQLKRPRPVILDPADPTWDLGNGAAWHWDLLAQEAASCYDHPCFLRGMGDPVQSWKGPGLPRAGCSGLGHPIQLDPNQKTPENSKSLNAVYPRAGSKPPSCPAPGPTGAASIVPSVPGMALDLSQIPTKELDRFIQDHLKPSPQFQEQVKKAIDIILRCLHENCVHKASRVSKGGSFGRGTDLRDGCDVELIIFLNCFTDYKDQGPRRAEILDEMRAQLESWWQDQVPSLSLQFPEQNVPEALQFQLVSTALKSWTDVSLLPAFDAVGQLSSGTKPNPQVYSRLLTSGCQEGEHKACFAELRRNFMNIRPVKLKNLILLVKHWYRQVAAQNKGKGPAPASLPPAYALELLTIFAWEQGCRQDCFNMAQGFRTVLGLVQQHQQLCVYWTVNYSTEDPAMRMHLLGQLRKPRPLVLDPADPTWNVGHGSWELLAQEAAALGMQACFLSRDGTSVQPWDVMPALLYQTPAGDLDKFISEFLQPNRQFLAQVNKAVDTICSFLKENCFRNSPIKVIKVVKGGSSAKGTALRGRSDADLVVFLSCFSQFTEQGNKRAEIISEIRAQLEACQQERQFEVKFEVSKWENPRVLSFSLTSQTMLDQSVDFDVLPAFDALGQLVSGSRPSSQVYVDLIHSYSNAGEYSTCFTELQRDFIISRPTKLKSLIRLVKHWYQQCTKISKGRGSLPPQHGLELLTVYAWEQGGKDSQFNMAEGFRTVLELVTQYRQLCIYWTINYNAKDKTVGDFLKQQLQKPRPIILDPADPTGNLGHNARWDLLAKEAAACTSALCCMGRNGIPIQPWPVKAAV
# UniProt Q5BJF6: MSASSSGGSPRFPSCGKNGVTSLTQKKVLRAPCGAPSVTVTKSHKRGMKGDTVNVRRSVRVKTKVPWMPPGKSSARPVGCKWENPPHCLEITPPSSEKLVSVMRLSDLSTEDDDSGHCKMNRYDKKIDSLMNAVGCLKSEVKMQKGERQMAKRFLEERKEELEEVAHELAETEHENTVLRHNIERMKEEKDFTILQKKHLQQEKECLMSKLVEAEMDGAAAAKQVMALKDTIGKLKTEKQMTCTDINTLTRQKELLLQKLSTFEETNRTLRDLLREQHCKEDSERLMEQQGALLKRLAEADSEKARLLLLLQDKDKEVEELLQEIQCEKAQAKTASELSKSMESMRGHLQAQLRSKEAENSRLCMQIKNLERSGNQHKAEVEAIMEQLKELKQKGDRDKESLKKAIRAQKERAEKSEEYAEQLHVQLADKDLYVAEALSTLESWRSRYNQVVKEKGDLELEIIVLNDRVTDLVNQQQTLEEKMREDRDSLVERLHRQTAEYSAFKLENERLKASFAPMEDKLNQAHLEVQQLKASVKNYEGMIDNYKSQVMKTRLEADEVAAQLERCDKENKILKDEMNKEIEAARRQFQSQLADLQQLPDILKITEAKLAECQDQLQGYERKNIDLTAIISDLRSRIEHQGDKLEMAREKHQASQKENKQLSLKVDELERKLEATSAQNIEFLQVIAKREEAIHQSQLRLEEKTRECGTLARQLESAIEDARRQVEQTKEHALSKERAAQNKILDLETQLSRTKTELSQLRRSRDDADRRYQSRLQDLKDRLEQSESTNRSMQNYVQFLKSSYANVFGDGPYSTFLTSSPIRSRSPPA
# UniProt Q86UD1: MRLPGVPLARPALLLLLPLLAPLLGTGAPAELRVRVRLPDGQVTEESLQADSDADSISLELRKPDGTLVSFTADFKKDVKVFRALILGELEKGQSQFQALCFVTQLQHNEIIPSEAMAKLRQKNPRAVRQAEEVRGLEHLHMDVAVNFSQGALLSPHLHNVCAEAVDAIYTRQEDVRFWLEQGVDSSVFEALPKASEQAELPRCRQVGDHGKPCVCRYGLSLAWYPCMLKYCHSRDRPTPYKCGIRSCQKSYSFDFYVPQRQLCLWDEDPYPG
# UniProt P11926: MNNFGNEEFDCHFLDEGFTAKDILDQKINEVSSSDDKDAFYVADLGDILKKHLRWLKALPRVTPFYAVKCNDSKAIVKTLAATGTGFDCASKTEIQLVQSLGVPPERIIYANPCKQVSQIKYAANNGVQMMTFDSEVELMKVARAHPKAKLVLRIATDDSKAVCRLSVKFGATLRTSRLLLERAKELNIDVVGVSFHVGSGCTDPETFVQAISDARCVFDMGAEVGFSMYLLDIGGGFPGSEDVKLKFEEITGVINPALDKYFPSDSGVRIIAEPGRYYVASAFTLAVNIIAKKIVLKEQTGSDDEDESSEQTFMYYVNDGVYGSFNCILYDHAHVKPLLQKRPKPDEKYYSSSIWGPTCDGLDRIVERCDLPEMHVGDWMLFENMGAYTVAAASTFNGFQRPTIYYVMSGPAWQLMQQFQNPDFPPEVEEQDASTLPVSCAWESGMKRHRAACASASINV
# UniProt Q8N573: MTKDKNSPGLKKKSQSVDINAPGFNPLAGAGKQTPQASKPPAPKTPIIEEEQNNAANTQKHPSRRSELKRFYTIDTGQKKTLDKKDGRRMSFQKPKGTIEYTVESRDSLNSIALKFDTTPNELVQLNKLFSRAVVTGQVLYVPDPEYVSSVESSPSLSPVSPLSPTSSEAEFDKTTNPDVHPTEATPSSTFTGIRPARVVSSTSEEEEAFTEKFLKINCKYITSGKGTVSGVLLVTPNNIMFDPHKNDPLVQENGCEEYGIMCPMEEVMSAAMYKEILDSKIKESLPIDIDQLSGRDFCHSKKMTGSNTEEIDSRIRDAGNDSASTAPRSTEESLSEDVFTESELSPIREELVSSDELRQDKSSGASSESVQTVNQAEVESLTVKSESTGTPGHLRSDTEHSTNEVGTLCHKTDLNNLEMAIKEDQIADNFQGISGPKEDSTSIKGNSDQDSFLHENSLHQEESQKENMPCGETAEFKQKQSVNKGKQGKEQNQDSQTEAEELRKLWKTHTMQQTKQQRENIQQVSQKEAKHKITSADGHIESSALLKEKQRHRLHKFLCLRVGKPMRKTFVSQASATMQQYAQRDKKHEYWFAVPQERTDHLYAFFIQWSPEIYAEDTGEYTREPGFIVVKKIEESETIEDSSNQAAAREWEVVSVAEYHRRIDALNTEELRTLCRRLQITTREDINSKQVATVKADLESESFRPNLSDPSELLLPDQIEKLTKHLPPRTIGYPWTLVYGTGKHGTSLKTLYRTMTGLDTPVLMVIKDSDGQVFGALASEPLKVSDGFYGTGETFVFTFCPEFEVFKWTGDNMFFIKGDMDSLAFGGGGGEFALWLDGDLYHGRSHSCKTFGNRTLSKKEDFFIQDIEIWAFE
# UniProt Q8NE18: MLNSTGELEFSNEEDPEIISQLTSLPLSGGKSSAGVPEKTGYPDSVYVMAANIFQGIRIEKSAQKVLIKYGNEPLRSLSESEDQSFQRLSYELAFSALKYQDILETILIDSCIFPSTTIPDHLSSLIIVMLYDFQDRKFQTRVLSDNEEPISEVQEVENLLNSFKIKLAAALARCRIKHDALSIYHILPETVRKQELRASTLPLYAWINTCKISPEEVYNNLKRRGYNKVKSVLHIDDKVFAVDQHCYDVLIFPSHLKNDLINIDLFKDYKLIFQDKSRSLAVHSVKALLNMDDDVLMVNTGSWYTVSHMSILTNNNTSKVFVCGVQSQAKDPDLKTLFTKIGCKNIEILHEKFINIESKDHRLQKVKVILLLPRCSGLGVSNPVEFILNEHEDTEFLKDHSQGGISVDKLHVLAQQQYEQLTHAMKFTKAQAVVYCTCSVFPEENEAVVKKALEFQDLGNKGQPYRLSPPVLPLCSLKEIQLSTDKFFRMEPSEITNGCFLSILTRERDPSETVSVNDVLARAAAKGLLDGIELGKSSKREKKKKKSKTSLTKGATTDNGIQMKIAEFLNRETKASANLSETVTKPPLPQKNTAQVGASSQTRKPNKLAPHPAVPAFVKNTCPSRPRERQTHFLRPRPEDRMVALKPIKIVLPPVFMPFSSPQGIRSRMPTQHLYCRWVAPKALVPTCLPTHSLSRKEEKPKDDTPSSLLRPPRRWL
# UniProt P0C024: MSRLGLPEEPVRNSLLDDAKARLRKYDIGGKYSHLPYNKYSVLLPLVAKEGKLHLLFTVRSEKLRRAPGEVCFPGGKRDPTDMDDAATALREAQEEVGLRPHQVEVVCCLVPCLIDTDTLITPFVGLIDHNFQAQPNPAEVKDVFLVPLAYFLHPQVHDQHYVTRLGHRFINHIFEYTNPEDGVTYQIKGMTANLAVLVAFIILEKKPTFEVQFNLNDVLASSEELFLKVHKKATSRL
# UniProt Q5BKU9: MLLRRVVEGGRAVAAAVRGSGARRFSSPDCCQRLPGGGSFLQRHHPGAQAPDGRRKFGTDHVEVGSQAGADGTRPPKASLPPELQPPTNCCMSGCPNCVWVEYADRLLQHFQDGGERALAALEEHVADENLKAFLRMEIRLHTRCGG
# How the values were obtained:
# Test in all cases: log2 fold change, soluble protein after heating vs DMSO (PISA); higher = thermal stabilisation; K562 cells, 10 uM, 30 min; active = over 0.2 and 3.5 SD of the protein, either way, in both replicates (recomputed)
# [1] = compound: COC1=CC=C(C=C1)CN2C=CC3=C2C=C(C=C3)C(=O)NO
# Outline: (§1)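 Quantification of soluble protein used TMTpro 16plex LC-MS/MS, with channel sums equalised. Samples were the supernatant after 21,000xg for 90 min of pooled aliquots from K562 cells (2×10^6 cells/mL) treated with 10 μM compound for 30 min, heated for 3 min over 48°C-58°C, and extracted in PBS with 0.5% NP-40 at 4°C. Values, from duplicates, describe thermal stability against control samples on a log2 fold-change scale.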
# [2] = compound: COc1cc(C(=O)O)ccc1NC(=O)[C@@H]1N[C@@H](CC(C)(C)C)[C@](C#N)(c2ccc(Cl)cc2F)[C@H]1c1cccc(Cl)c1F [idasanutlin]
# Outline: as §1
# [3] = compound: COc1cc(Nc2ncc3c(n2)-c2ccc(Cl)cc2C(c2c(F)cccc2OC)=NC3)ccc1C(=O)O [alisertib]
# Outline: as §1
# [4] = compound: COc1cc2nc(-c3cc(F)ccc3O)nc(N[C@@H]3CNC[C@H]3C(C)(C)O)c2cc1OC
# Outline: as §1
# [5] = compound: COc1cc2ncnc(Nc3ccc(F)c(Cl)c3)c2cc1OCCCN1CCOCC1 [gefitinib]
# Outline: as §1
# [6] = compound: COc1cccc2cc(-c3nc([C@H]4CC[C@H](C(=O)O)CC4)n4ncnc(N)c34)[nH]c12
# Outline: as §1
# [7] = compound: CS(=O)(=O)CCNCc1ccc(-c2ccc3ncnc(Nc4ccc(OCc5cccc(F)c5)c(Cl)c4)c3c2)o1 [lapatinib]
# Outline: as §1
# [8] = compound: CS(=O)(=O)N1CCN(Cc2cc3nc(-c4cccc5[nH]ncc45)nc(N4CCOCC4)c3s2)CC1 [pictilisib]
# Outline: as §1
# [9] = compound: C[C@@H](Oc1cc(-c2cnn(C3CCNCC3)c2)cnc1N)c1c(Cl)ccc(F)c1Cl [crizotinib]
# Outline: as §1
# [10] = compound: Cc1cc(Nc2cc(CN3CCOCC3)c3nc(C)c(Cc4ccc(Cl)cc4F)n3n2)n[nH]1 [gandotinib]
# Outline: as §1
# [11] = compound: Cc1ccc(-n2nc(C(C)(C)C)cc2NC(=O)Nc2ccc(OCCN3CCOCC3)c3ccccc23)cc1 [doramapimod]
# Outline: as §1
# [12] = compound: Cc1ccc(C(=O)N(CCCN)[C@@H](c2nc3cc(Cl)ccc3c(=O)n2Cc2ccccc2)C(C)C)cc1 [ispinesib]
# Outline: as §1
# [13] = compound: CON(C)C(=O)N1N=C(c2cc(F)ccc2F)S[C@@]1(CCCN)c1ccccc1 [filanesib]
# Outline: as §1
# [14] = compound: CS(=O)(=O)c1ccc(-c2cnc(N)c(C(=O)Nc3ccccc3)n2)cc1
# Outline: as §1
# [15] = compound: C[C@H](Nc1ncnc2nc[nH]c12)c1cc2cccc(Cl)c2c(=O)n1-c1ccccc1 [duvelisib]
# Outline: as §1
# [16] = compound: Cc1cc(SCc2sc(-c3ccc(C(F)(F)F)cc3)nc2C)ccc1OCC(=O)O
# Outline: as §1
# [17] = compound: C[C@@H]1COCCN1C2=NC(=NC(=C2)C3(CC3)S(=O)(=O)C)C4=C5C=CNC5=CC=C4
# Outline: as §1
# [18] = compound: CO[C@H]1C[C@@H]2CC[C@@H](C)[C@@](O)(O2)C(=O)C(=O)N2CCCC[C@H]2C(=O)O[C@H]([C@H](C)C[C@@H]2CC[C@H](n3cnnn3)[C@H](OC)C2)CC(=O)[C@H](C)/C=C(\C)[C@@H](O)[C@@H](OC)C(=O)[C@H](C)C[C@H](C)/C=C/C=C/C=C/1C [zotarolimus]
# Outline: as §1
# [19] = compound: C[C@H](C1=CC=C(C=C1)C(=O)NC2=C3C=CNC3=NC=C2)N
# Outline: as §1
# [20] = compound: Cc1cc(Nc2cc(N3CCN(C)CC3)nc(Sc3ccc(NC(=O)C4CC4)cc3)n2)n[nH]1 [tozasertib]
# Outline: as §1
target,measurement,setting,value
OVCA2 (UniProt Q8WZ82),log2 fold change,[1],inactive: -0.206
same,log2 fold change,[2],inactive: -0.023
same,log2 fold change,[3],inactive: 0.102
same,log2 fold change,[4],inactive: 0.201
same,log2 fold change,[5],inactive: -0.143
same,log2 fold change,[6],inactive: -0.318
same,log2 fold change,[7],inactive: -0.014
same,log2 fold change,[8],inactive: -0.176
same,log2 fold change,[9],inactive: 0.064
same,log2 fold change,[10],inactive: -0.232
same,log2 fold change,[11],inactive: -0.186
same,log2 fold change,[12],inactive: 0.026
PABPC1 (UniProt H0YAR2),log2 fold change,[1],inactive: 0.296
same,log2 fold change,[13],inactive: -0.042
same,log2 fold change,[3],inactive: 0.105
same,log2 fold change,[6],inactive: -0.051
same,log2 fold change,[14],inactive: -0.024
same,log2 fold change,[9],inactive: -0.022
same,log2 fold change,[11],inactive: -0.028
same,log2 fold change,[12],inactive: 0.204
OAS3 (UniProt Q9Y6K5),log2 fold change,[1],inactive: -0.275
same,log2 fold change,[13],inactive: -0.057
same,log2 fold change,[14],inactive: -0.114
same,log2 fold change,[9],inactive: 0.044
same,log2 fold change,[15],inactive: 0.099
same,log2 fold change,[16],inactive: -0.044
same,log2 fold change,[11],inactive: 0.069
same,log2 fold change,[12],inactive: -0.216
ODF2 (UniProt Q5BJF6),log2 fold change,[8],inactive: -0.333
same,log2 fold change,[17],inactive: -0.108
same,log2 fold change,[10],inactive: 0.004
OAF (UniProt Q86UD1),log2 fold change,[13],inactive: -0.017
same,log2 fold change,[3],inactive: -0.239
same,log2 fold change,[6],active: 0.539
same,log2 fold change,[14],inactive: -0.112
same,log2 fold change,[12],inactive: 0.014
ODC1 (UniProt P11926),log2 fold change,[1],inactive: -0.3
same,log2 fold change,[2],inactive: 0.227
same,log2 fold change,[4],inactive: 0.117
same,log2 fold change,[5],inactive: -0.108
same,log2 fold change,[7],inactive: -0.096
same,log2 fold change,[9],inactive: -0.045
same,log2 fold change,[15],inactive: 0.205
same,log2 fold change,[16],inactive: 0.087
same,log2 fold change,[11],inactive: 0.082
P4HB (UniProt H7BZ94),log2 fold change,[13],inactive: 0.168
same,log2 fold change,[14],inactive: -0.398
PABPC1 (UniProt E5RJM8),log2 fold change,[1],inactive: -0.428
same,log2 fold change,[13],inactive: -0.058
same,log2 fold change,[4],inactive: 0.068
same,log2 fold change,[7],inactive: -0.186
same,log2 fold change,[14],inactive: 0.144
same,log2 fold change,[9],inactive: -0.263
same,log2 fold change,[11],inactive: -0.027
OXR1 isoform 2 (UniProt Q8N573),log2 fold change,[1],inactive: -0.175
same,log2 fold change,[18],inactive: -0.014
same,log2 fold change,[2],inactive: -0.009
same,log2 fold change,[4],inactive: 0.018
same,log2 fold change,[5],inactive: 0.014
same,log2 fold change,[7],inactive: -0.061
same,log2 fold change,[8],inactive: -0.073
same,log2 fold change,[9],inactive: -0.027
same,log2 fold change,[17],inactive: 0.187
same,log2 fold change,[19],inactive: -0.105
same,log2 fold change,[10],inactive: -0.225
same,log2 fold change,[16],inactive: 0.043
same,log2 fold change,[11],inactive: 0.022
same,log2 fold change,[12],inactive: -0.134
NSUN7 (UniProt Q8NE18),log2 fold change,[1],inactive: -0.189
same,log2 fold change,[18],inactive: -0.228
same,log2 fold change,[2],inactive: -0.027
same,log2 fold change,[3],inactive: 0.123
same,log2 fold change,[4],inactive: 0.207
same,log2 fold change,[5],inactive: 0.077
same,log2 fold change,[6],inactive: -0.2
same,log2 fold change,[7],inactive: -0.416
same,log2 fold change,[8],inactive: 0.163
same,log2 fold change,[9],inactive: 0.093
same,log2 fold change,[17],inactive: 0.288
same,log2 fold change,[19],inactive: 0.168
same,log2 fold change,[10],inactive: -0.034
same,log2 fold change,[20],inactive: -0.042
same,log2 fold change,[11],inactive: -0.014
same,log2 fold change,[12],inactive: -0.03
NUDT7 (UniProt P0C024),log2 fold change,[1],inactive: 0.023
same,log2 fold change,[13],inactive: -0.092
same,log2 fold change,[5],inactive: 0.05
same,log2 fold change,[8],inactive: 0.115
same,log2 fold change,[14],inactive: 0.03
same,log2 fold change,[9],inactive: 0.004
same,log2 fold change,[17],inactive: 0.248
same,log2 fold change,[10],inactive: -0.23
same,log2 fold change,[11],inactive: 0.011
same,log2 fold change,[12],inactive: -0.157
OXLD1 (UniProt Q5BKU9),log2 fold change,[3],inactive: -0.077
same,log2 fold change,[5],inactive: 0.013
same,log2 fold change,[6],inactive: 0.033

# Not a retest: entries from further up.
target,measurement,setting,value
NUDT7 (UniProt P0C024),log2 fold change,[9],inactive: 0.004
same,log2 fold change,[17],inactive: 0.248
same,log2 fold change,[10],inactive: -0.23
same,log2 fold change,[11],inactive: 0.011

# Pulled one by one from above:
target,measurement,setting,value
ODF2 (UniProt Q5BJF6),log2 fold change,[17],inactive: -0.108
NSUN7 (UniProt Q8NE18),log2 fold change,[8],inactive: 0.163
